# Assay results reported in PubChem BioAssay AID493014 (National Center for Advancing Translational Sciences (NCATS), 2011).
# The list shows a part of the results. Further columns of the screen follow, without active or inactive calls. The list favours compounds with an active or inconclusive main result. Words in brackets tell the shape of the fitted curve; partial curves, single points and poor fits give uncertain potencies.
# Assay: qHTS Assay to Find Inhibitors of Chronic Active B-Cell Receptor Signaling
# Settings: ABC-DLBCL IkBa-CBG/CBR reporter, luminescence ratio (green luciferase fused to IkBa over red control in TMD8 lymphoma cells), 4 h
# How it was run: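 TMD8 human ABC-DLBCL cells with doxycycline-inducible IκBα–green luciferase fusion and unfused red luciferase, in 0.5% FBS medium; compounds up to 46 uM, 4 h at 37C. Green/red luminescence ratio, filter-overlap corrected, fitted to concentration-response curves.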
# [1] = measured here: CBR red luminescence, cell number
# [2] = measured here: IkBa-CBG green luminescence
SMILES,AC50 [1],AC50 [2]
Cc1cc(=O)oc(C)c1C(=O)NC12CC3CC(CC(C3)C1)C2,"0.1 µM [rising, full curve]",
O=C(Nc1ccc(N2CCCCC2)cc1)c1ccc(F)cc1F,"10 µM [falling, partial curve, poor fit]",
Cc1cccc(NC(=O)CSc2nc3c(oc4ccccc43)c(=O)n2-c2ccccc2)c1,"16.4 µM [rising, partial curve]",
Cc1ccc(C(=O)/C=C2\NCC(C)NC2=O)cc1 (configuration not stated),"15.8 µM [falling, partial curve]",
Cc1nn(C)c(C)c1/C=N/NC(=O)CCn1cc([N+](=O)[O-])cn1,"0.326 µM [rising, full curve, poor fit]",
CC(Oc1ccccc1)C(=O)Nc1cccc(NC(=O)c2ccco2)c1 (configuration not stated),"2.82 µM [falling, partial curve]",
CC(C)=C1C2CCC1C1C(=O)N(NC(=O)COc3ccc(Cl)c(C)c3)C(=O)C21 (configuration not stated),"4.61 µM [falling, single point]",
Cc1ccn2cc(-c3cc4ccccc4oc3=O)nc2c1,"1.78 µM [falling, full curve]",
O=C1S/C(=C\c2cccs2)C(=O)N1c1ccc(O)cc1,"11.2 µM [falling, partial curve]",
O=C(Nc1cccnc1)c1cc(-c2cccs2)on1,"3.55 µM [falling, partial curve, poor fit]",
COc1ccc2nc(N3C(=O)C(O)=C(C(=O)c4ccco4)C3c3ccc(C)o3)sc2c1 (configuration not stated),"3.26 µM [rising, single point]",
COc1ccc(/C=C/C(=O)Nc2cccc(N3CCOCC3)c2)cc1OC,"20.6 µM [falling, partial curve, poor fit]",
CCCCOc1ccc(C(=O)NNC(=O)C2C3C=CC(C3)C2C(=O)O)cc1 (configuration not stated),"2.24 µM [falling, full curve]",
COc1cc(C2Nc3ccccc3C(=O)N2c2ccc(Cl)cc2)c(Cl)cc1OCC(=O)O (configuration not stated),"2.59 µM [rising, full curve]","16.4 µM [falling, partial curve]"
Cc1ccccc1C1CC(=O)NC2=C1C(=O)CCC2 (configuration not stated),"17.8 µM [falling, single point]",
CC12CCC(=O)N1C(C(=O)Nc1ccc(F)c(Cl)c1)CS2 (configuration not stated),"18.4 µM [falling, single point]",
CCCOc1ccccc1N/C(=N/c1nc(C)cc(C)n1)NC(=O)Nc1ccc(Cl)cc1,"2.24 µM [rising, full curve, poor fit]",
CCCCN(C(=O)c1cccc2c(=O)c(C)c(-c3ccccc3)oc12)c1ccccc1,"25.9 µM [falling, partial curve, poor fit]",
COc1ccc(NC(=O)c2cc(-c3ccccc3OC)on2)cc1,,"35.5 µM [falling, single point]"
Cc1cccc(Cn2c(N3CCc4ccccc4C3)nc3c2c(=O)[nH]c(=O)n3C)c1,"29.1 µM [rising, single point]",
O=C(Nc1ccc(N2CCOCC2)cc1)c1cnccn1,"7.94 µM [falling, partial curve]",

SMILES,AC50 [1],AC50 [2]
CN(C(=O)COC(=O)C(Cc1ccccc1)NC(=O)c1ccccc1)c1ccccc1 (configuration not stated),"2.31 µM [falling, partial curve, poor fit]",
COc1ccc(-n2c(CN3CCC(C(N)=O)CC3)nc3ccc([N+](=O)[O-])cc3c2=O)c(OC)c1,"22.4 µM [falling, partial curve, poor fit]",
CCc1cc2c(=O)c(-c3cscn3)coc2c(CN(C)C)c1O,"3.66 µM [falling, single point]",
O=C(/C=C/Nc1ccc(F)cc1Br)c1ccccc1,"5.17 µM [falling, partial curve]",
Brc1ccc(-c2nnc(-c3cccc(Br)c3)o2)cc1,"1.12 µM [rising, full curve]",
COc1ccc(-c2cc(C(F)F)n3ncc(C(=O)Nc4cc(C)on4)c3n2)cc1,"35.5 µM [falling, single point]",
COc1cccc(/C=N/NC(=O)c2cc3c(OC)ccc(OC)c3[nH]2)c1O,,"3.55 µM [falling, single point]"
O=C(NNC(=S)NC(=O)c1ccccc1[N+](=O)[O-])c1ccccc1,"0.146 µM [falling, full curve]",
CC(=O)c1c(C)[nH]c(C(=O)OCC(=O)NCCc2ccc(Cl)cc2)c1C,"6.51 µM [rising, single point]",
COc1ccc([N+](=O)[O-])cc1NC1CCCCC1,"15.8 µM [rising, single point]",
Cc1cc(Sc2nnc(N)s2)c2ccccc2n1,"0.316 µM [falling, full curve, poor fit]",
COC(=O)c1ccc(NC(=O)CSc2nc(=O)n(Cc3ccco3)c3c2CCC3)cc1,"17.8 µM [falling, partial curve, poor fit]","7.94 µM [rising, partial curve, poor fit]"
CN(Cc1cccc(F)c1)C(=O)c1ccc(NS(=O)(=O)c2ccc3[nH]c(=O)[nH]c3c2)cc1,"1.16 µM [falling, partial curve, poor fit]",
CN(C)c1nc(Cl)nc(NCCOc2ccccc2)n1,"6.51 µM [rising, partial curve]",
O=C(Nc1nnc(-c2cccnc2)o1)c1ccccc1Cl,"28.2 µM [falling, partial curve, poor fit]",
OCCNCc1c(OCc2ccc(Cl)cc2)ccc2ccccc12,"35.5 µM [falling, single point]",
O=C(NNC(=S)NC(=O)c1ccccc1)c1ccc(O)cc1,"10 µM [falling, partial curve, poor fit]",
CN(CC(=O)Nc1ccccc1Cl)C(=O)Cn1nnc(-c2ccc(F)cc2)n1,"9.2 µM [rising, partial curve]",
Cc1ccc(C(=O)Nc2ccc3c(c2)OCCO3)c(C)c1,"6.31 µM [rising, partial curve, poor fit]",
CCCSc1nc2sc3c(c2c(=O)n1-c1ccc(OC)cc1)CCN(C)C3,"12.6 µM [rising, single point]",
Cc1cc(OC(=O)c2c(F)cc(F)cc2F)nc(C)n1,"0.562 µM [rising, full curve, poor fit]",

SMILES,AC50 [1],AC50 [2]
Cc1ccc(NC(=O)CSc2nnc(COc3ccc(C#N)cc3)n2-c2ccccc2)cc1C,"11.2 µM [falling, single point]",
COc1ccc(N2CCN(c3oc(-c4ccc(OC)c(OC)c4)nc3C#N)CC2)cc1,"18.4 µM [rising, single point]",
COc1cccc(-c2nnc3sc(C4CCCCC4)nn23)c1,"10.3 µM [falling, single point]",
Cn1c(/C=C/c2ccc(Cl)cc2)nc2ccccc2c1=O,"0.316 µM [rising, full curve, poor fit]",
CN(Cc1cnn(C)c1)Cc1nc(-c2ccc(Cl)cc2)no1,"12.6 µM [rising, partial curve]",
CCc1c(C)sc(NC(=O)c2cc(-c3ccco3)on2)c1C#N,"31.6 µM [falling, single point]",
CC1CCN(S(=O)(=O)c2cccc(-c3cn4cc(Cl)ccc4n3)c2)CC1,"6.51 µM [falling, single point]",
COC(=O)c1ccc(NC(=O)c2ccc(C)cc2)o1,"15.8 µM [falling, partial curve, poor fit]",
O=C(Nc1ccccc1F)NC1CCCc2ccccc21 (configuration not stated),"0.0891 µM [falling, full curve, poor fit]",
O=C(CSc1ccc(-c2nc3ccccc3[nH]2)cn1)Nc1ccc(S(=O)(=O)NC2CC2)cc1,"20.6 µM [falling, partial curve, poor fit]",
COc1ccccc1-c1cc(C(F)(F)F)nc(S(=O)(=O)CCCC(=O)N2CCOCC2)n1,"3.66 µM [falling, full curve]","3.66 µM [rising, partial curve, poor fit]"
CCN(CC)C(=O)Nc1c(C)n(C)n(-c2ccccc2)c1=O,"20.6 µM [rising, partial curve, poor fit]",
CC[C@H]1CN2CCc3cc(OC)c(OC)cc3[C@@H]2C[C@@H]1C[C@H]1NCCc2cc(OC)c(OC)cc21,"0.164 µM [falling, full curve]","0.291 µM [rising, full curve]"
O=C(Nc1ccncc1)c1ccc(-c2ccccc2)cc1,"2.82 µM [falling, single point]",
O=C(N/N=C/c1ccco1)C1CC1(c1ccccc1)c1ccccc1 (configuration not stated),"29.1 µM [falling, single point]","23.1 µM [rising, partial curve, poor fit]"
O=S(=O)(Nc1ccc(Cl)cn1)c1cnc(Cl)c(Br)c1,"3.98 µM [rising, single point]",
Cc1cc(C)n2cc(CSc3nnnn3-c3ccccc3)nc2n1,"11.2 µM [falling, partial curve, poor fit]",
CC1OC(O[C@H]2CC[C@]3(C)C4C=C[C@]56OC[C@@]7(CC[C@@H](C)[C@H](C)C75)[C@H](O)C[C@@]6(C)[C@]4(C)CC[C@H]3C2(C)C)C(OC2OC(CO)C(O)C(O)C2OC2OCC(O)C(O)C2O)C(O)C1O (some centres not stated),"35.5 µM [falling, single point]","31.6 µM [rising, partial curve, poor fit]"
Cc1csc(NC(=O)c2cc3c(s2)CCCC3)n1,"4.47 µM [falling, full curve, poor fit]",

# Individual results from the entries so far:
# Value of CCc1c(C)sc(NC(=O)c2cc(-c3ccco3)on2)c1C#N under AC50 [1]: 31.6 µM [falling, single point]
# Value of O=C(Nc1ccc(N2CCCCC2)cc1)c1ccc(F)cc1F under AC50 [1]: 10 µM [falling, partial curve, poor fit]
# Value of O=C(Nc1ccc(N2CCOCC2)cc1)c1cnccn1 under AC50 [1]: 7.94 µM [falling, partial curve]
